Data as given in PubChem BioAssay AID602196 (INSERM, 2012).
Test: 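Knock-downs that protect lung cancer cells from cisplatin or sensitise them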. System: human A549 lung cancer cells. Knock-down reagent: siRNA pair against human genes. Timing: 48 h transfection before cisplatin; time from cisplatin to read-out not stated. Challenge: cisplatin at a dose killing half of control-siRNA cells; exact dose and duration not given. Measured: 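Shift in cisplatin death relative to control siRNA, from -50 (all cells die) to +50 (no cells die); siRNAs harmful on their own scored 0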. Direction: two-siRNA summed score (-2 to +2): higher = both siRNAs protect from cisplatin killing; -2 means both sensitise; mean protection from cisplatin (shift in death) and protection from cisplatin (shift in death), siRNA C and protection from cisplatin (shift in death), siRNA D: higher = protection from cisplatin killing. Rule for the call: 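Each siRNA scores 0 if harmful alone by LDH or WST-1, otherwise +1 if it reduces and -1 if it increases cisplatin killing; a gene is active when both siRNAs agree (sum +2 or -2)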. Meaning of the calls: active = both siRNAs shift cisplatin killing the same way; inactive = no consistent shift, or siRNA harmful alone.
The deposit covers about 23,000 reagents; this is an unselected part. 455 of all reagents (2%) were called active. 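Active includes both protection and sensitisation; some change values fall well beyond the stated -50 to +50 range.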 Unmarked entries are inactive. Reagent sequences are not shown. The record does not give: the amount of reagent.

two-siRNA summed score (-2 to +2) | mean protection from cisplatin (shift in death) (%) | protection from cisplatin (shift in death), siRNA C (%) | protection from cisplatin (shift in death), siRNA D (%) | gene knocked down
0 | 9.7 | 0 | 19.4 | GAS2L1
0 | 4.1 | 2.9 | 5.3 | EHD2
0 | 7.3 | 1.2 | 13.3 | LOC440082 (retired record)
0 | 8.3 | 7 | 9.6 | STOX2
0 | 7 | -2.9 | 17 | LOC440601
0 | 7.9 | 15 | 0.7 | MRPL44
-1 | -8.6 | -13 | -4.3 | TAS2R19
0 | 8.6 | 10.9 | 6.3 | RBM4
0 | 8.7 | 10.6 | 6.8 | LY86
0 | 8.7 | 5.8 | 11.7 | LOC441079
-1 | -12.6 | -0.8 | -24.5 | SIRPG
0 | 16.1 | 39.1 | -7 | H1-7
0 | 2.9 | 7.3 | -1.5 | CWF19L2
0 | -0.1 | 3.1 | -3.4 | LOC400607
0 | -1.5 | -0.4 | -2.7 | GANAB
0 | -1.4 | -3.3 | 0.5 | GLOD4
0 | -3.5 | -5.7 | -1.2 | CLOCK
-1 | -0.4 | 29 | -29.9 | ADAMTS13
1 | 9.7 | -1.1 | 20.5 | CBX2
0 | 5.4 | 14.6 | -3.8 | MSRB3
1 | 19.8 | 11.5 | 28.2 | STAC
0 | 7 | 1.2 | 12.8 | KSR2
0 | 10.8 | 10.4 | 11.3 | TRMT11
0 | -5.4 | -7.7 | -3.1 | ASPSCR1
-1 | -13.9 | 3.9 | -31.6 | PLOD3
0 | 7.2 | 10.7 | 3.7 | KXD1
0 | -2.2 | -2.1 | -2.2 | BABAM1
0 | 9.8 | 15.3 | 4.2 | ZNF385D
0 | 6.3 | 5.3 | 7.3 | LYG1
0 | 1.7 | 12.2 | -8.8 | LINC01579
0 | -1 | 4.7 | -6.6 | DYNC2LI1
1 | -0.4 | -14.3 | 13.6 | ZSCAN9
-1 | -5.1 | 1.7 | -12 | SIGMAR1
0 | 7 | 1.2 | 12.7 | CERS5
0 | -13.2 | -7.7 | -18.6 | PRB1
0 | 7.2 | 7.1 | 7.2 | LOC340511
0 | -2 | -2.7 | -1.2 | TBC1D15
0 | 3.5 | 1.4 | 5.7 | HNRNPA3
-1 | -8.3 | -17.8 | 1.3 | FGF23
0 | 6.9 | 22 | -8.3 | SLC28A1
0 | 5.6 | 5.4 | 5.9 | FMO2
-1 | 6.3 | 25.9 | -13.2 | HOXC5
0 | 7.5 | 18.5 | -3.4 | LOC439946
1 | 11.2 | 15.6 | 6.9 | SPATA31G1
1 | 7.8 | -4.2 | 19.9 | SMARCB1
0 | 12.2 | 10.1 | 14.4 | LRRC71
0 | -1.6 | 6.9 | -10.1 | LYZL2
0 | 2.2 | 7.2 | -2.8 | LOC401307
0 | 6.8 | 9.8 | 3.8 | SF1
0 | 15.4 | 20.2 | 10.5 | ITSN2
0 | -2 | -6.1 | 2.1 | LANCL1
0 | 8 | 22.2 | -6.3 | PEX11G
1 | 19.2 | 24.5 | 13.9 | ARL5A
-1 | -3.5 | -20.5 | 13.6 | RPRM
0 | -3 | -11 | 5 | CDK2
0 | 4.7 | 10.7 | -1.3 | SLIT3
1 | 11.2 | 7.1 | 15.2 | FAXDC2
-1 | -4.9 | 6.6 | -16.5 | LOC344620
0 | 5.3 | 5.1 | 5.4 | TBX22
0 | 6.1 | 2.4 | 9.9 | RMI2
0 | 16.8 | 10.7 | 22.8 | LOC440055
0 | 1.9 | -6.5 | 10.3 | MTREX
0 | -0.2 | 4 | -4.3 | MAF1
0 | 25.7 | 7.5 | 44 | KEAP1
0 | 7.4 | 12.1 | 2.8 | SFTPA1
0 | 14.4 | 10.9 | 18 | LOC388163
0 | 0.6 | -8.9 | 10 | ZNF771
0 | -2.5 | 5 | -10 | LDHA
0 | 31.7 | 16.4 | 47.1 | RPL12
0 | -11.8 | -8 | -15.6 | CASP8AP2
-1 | -12 | -8.5 | -15.5 | GPR84
0 | -4.7 | -6.4 | -3 | CRB1
0 | 1.1 | -0.2 | 2.5 | ARPC5
